# Results are given in words; binding and its absence hold for the method and conditions named. In cells and extracts the contact can be indirect. Here binding means that the protein was enriched with, or labelled near, the bait; the list need not be complete.
# Sequences of proteins named here, by UniProt entry; tags and fusion partners are left off. Residues count along the entry.
# UniProt Q13098, residues 1-200: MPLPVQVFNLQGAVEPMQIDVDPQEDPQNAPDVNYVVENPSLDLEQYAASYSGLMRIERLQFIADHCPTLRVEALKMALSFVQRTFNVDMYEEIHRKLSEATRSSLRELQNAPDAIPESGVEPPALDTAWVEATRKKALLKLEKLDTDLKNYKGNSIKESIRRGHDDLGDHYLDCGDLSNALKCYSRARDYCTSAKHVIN
# UniProt O35286: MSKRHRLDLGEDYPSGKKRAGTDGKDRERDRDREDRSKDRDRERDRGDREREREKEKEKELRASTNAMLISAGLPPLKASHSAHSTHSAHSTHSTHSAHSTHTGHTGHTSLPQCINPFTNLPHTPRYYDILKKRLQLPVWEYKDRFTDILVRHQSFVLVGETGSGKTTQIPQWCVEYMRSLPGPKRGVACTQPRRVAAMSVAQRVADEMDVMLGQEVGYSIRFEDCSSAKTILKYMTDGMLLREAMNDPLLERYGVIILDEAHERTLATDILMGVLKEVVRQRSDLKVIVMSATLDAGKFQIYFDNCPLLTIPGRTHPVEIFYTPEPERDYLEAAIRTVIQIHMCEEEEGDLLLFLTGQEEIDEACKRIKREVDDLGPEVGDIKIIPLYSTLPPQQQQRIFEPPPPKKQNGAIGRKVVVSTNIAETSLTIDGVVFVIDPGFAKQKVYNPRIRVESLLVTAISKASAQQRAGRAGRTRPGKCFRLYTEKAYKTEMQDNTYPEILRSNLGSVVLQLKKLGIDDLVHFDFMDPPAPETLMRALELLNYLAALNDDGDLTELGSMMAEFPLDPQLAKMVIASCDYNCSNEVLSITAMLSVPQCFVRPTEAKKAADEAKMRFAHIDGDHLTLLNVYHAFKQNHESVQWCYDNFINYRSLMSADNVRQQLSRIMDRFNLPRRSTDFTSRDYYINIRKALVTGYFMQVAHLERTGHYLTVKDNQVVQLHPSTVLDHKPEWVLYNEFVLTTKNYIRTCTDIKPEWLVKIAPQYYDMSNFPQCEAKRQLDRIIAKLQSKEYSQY
# B1: SAP130/SF3b-3 (endogenous, NIH3T3) (protein, UniProt Q921M3 1-1217)
# chain: MFLYNLTLQRATGISFAIHGNFSGTKQQEIVVSRGKILELLRPDPNTGKVHTLLTVEVFGVIRSLMAFRLTGGTKDYIVVGSDSGRIVILEYQPSKNMFEKIHQETFGKSGCRRIVPGQFLAVDPKGRAVMISAIEKQKLVYILNRDAAARLTISSPLEAHKANTLVYHVVGVDVGFENPMFACLEMDYEEADNDPTGEAAANTQQTLTFYELDLGLNHVVRKYSEPLEEHGNFLITVPGGSDGPSGVLICSENYITYKNFGDQPDIRCPIPRRRNDLDDPERGMIFVCSATHKTKSMFFFLAQTEQGDIFKITLETDEDMVTEIRLKYFDTVPVAAAMCVLKTGFLFVASEFGNHYLYQIAHLGDDDEEPEFSSAMPLEEGDTFFFQPRPLKNLVLVDELDSLSPILFCQIADLANEDTPQLYVACGRGPRSSLRVLRHGLEVSEMAVSELPGNPNAVWTVRRHIEDEFDAYIIVSFVNATLVLSIGETVEEVTDSGFLGTTPTLSCSLLGDDALVQVYPDGIRHIRADKRVNEWKTPGKKTIVKCAVNQRQVVIALTGGELVYFEMDPSGQLNEYTERKEMSADVVCMSLANVPPGEQRSRFLAVGLVDNTVRIISLDPSDCLQPLSMQALPAQPESLCIVEMGGTEKQDELGERGSIGFLYLNIGLQNGVLLRTVLDPVTGDLSDTRTRYLGSRPVKLFRVRMQGQEAVLAMSSRSWLSYSYQSRFHLTPLSYETLEFASGFASEQCPEGIVAISTNTLRILALEKLGAVFNQVAFPLQYTPRKFVIHPESNNLIIIETDHNAYTEATKAQRKQQMAEEMVEAAGEDERELAAEMAAAFLNENLPESIFGAPKAGNGQWASVIRVMNPIQGNTLDLVQLEQNEAAFSVAVCRFSNTGEDWYVLVGVAKDLILSPRSVAGGFVYTYKLVNNGEKLEFLHKTPVEEVPAAIAPFQGRVLIGVGKLLRVYDLGKKKLLRKCENKHIANYISGIQTIGHRVIVSDVQESFIWVRYKRNENQLIIFADDTYPRWVTTASLLDYDTVAGADKFGNICVVRLPPNTNDEVDEDPTGNKALWDRGLLNGASQKAEVIMNYHVGETVLSLQKTTLIPGGSESLVYTTLSGGIGILVPFTSHEDHDFFQHVEMHLRSEHPPLCGRDHLSFRSYYFPVKNVIDGDLCEQFNSMEPNKQKNVSEELDRTPPEVSKKLEDIRTRYAF
# Target: HT-FS1-NTD (UniProt Q13098)
# Test: affinity purification with mass spectrometry; HT-FS1-NTD immobilised on Ni-NTA beads, incubated with NIH3T3 whole cell extract 3 hr at 4°C in binding buffer (25 mM Tris-HCl pH 7.4, 136 mM NaCl, 5 mM KCl, 20 mM imidazole); eluted by TEV protease; Coomassie bands identified by mass spectrometry and peptide sequencing; only the target purified
molecule,measurement,value
Ddx15/mDEAH9/prp43 (from UniProt O35286 1-795),binding,binds
B1,binding,binds

# From article PMC2265268
